In the supplement of paper PMC7877785:
± gives the uncertainty stated by the source. The uncertainty is large for many entries.

Test: self-splicing fitness, log relative to wild type (ln ratio); higher = more splicing; Tetrahymena group I intron in knt gene, E. coli kanamycin selection, DiMSum; sequences stand for … in CUCUCU…GGAGGGAAAAGUUAUCAGGCAUGCACCUGGUAGCUAGUCUUUAAACCAAUAGAUUGCAUCGGUUUAAAAGGCAAGACCGUCAAAUUGCGGGAAAGGGGUCAACAGCCGUUCAGUACCAAGUCUCAGGGGAAACUUUGAGAUGGCCUUGCAAAGGGUAUGGUAAUAAGCUGACGGACAUGGUCCUAACCACGCAGCCAAGUCCUAAGUCAACAGAUCUUCUGUUGAUAUGGAUGCAGUUCACAGACUAAAUGUCGGUCGGGGAAGAUGUAUUCUUCUCAUAAGAUAUAGUCGGACCUCUCCUUAAUGGGAGCUAGCGGAUGAAGUGAUGCAACACUGGAGCCGCUGGGAACUAAUUUGUAUGCGAAAGUAUAUUGAUUAGUUUUGGAGUACUCGUGGUCG
Summary of the method: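 Colonies from six replicate transformations of E. coli BL21(DE3) were pooled and amplicon-sequenced on an Illumina HiSeq 2500. The library placed an intron with all eight P1ex-region nucleotides randomised inside the knt kanamycin-resistance gene on pET-22b(+), and cells grew overnight at 37°C or 30°C on LB agar with or without 25 μg/mL kanamycin (plus 100 μg/mL carbenicillin, 50 μM IPTG, 0.2% rhamnose). Fitness is the DiMSum error-weighted combination of wild-type-normalised replicate fold changes, kanamycin versus none.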

Sequence	self-splicing fitness (ln) (37 °C)	self-splicing fitness (ln) (30 °C)
GAUGAGCAAUAUUACGAAUU	-3.58 ± 1	–
UCCUAGCAAUAUUACGCCCU	-0.234 ± 1.4	–
UUUGAGCAAUAUUACGGAGU	-2.39 ± 0.64	-2.49 ± 0.28
CGUAAGCAAUAUUACGGUGG	-1.25 ± 0.11	-1.48 ± 0.082
UAUAAGCAAUAUUACGCCCC	-0.688 ± 0.61	-1.17 ± 0.93
UCUUAGCAAUAUUACGUUCU	–	-4.12 ± 0.59
GGGUAGCAAUAUUACGUCAG	–	-4.17 ± 0.52
UUGUAGCAAUAUUACGCGGC	-1.29 ± 0.74	–
CUGAAGCAAUAUUACGGAUC	-4.29 ± 0.72	-4.12 ± 0.59
ACCUAGCAAUAUUACGAACA	0.383 ± 0.2	-2.24 ± 0.29
CGGAAGCAAUAUUACGUGCC	-0.595 ± 1.4	-2.79 ± 1.2
ACCGAGCAAUAUUACGUUAG	-2.65 ± 0.15	-4.03 ± 0.15
AGGGAGCAAUAUUACGUCAA	-2.52 ± 0.45	-3.37 ± 0.44
GCCGAGCAAUAUUACGCCGC	-3.01 ± 0.61	–
AGUAAGCAAUAUUACGUGUA	-1.8 ± 0.13	-2.16 ± 0.12
UCUUAGCAAUAUUACGGAGA	–	-3.56 ± 0.6
CGUAAGCAAUAUUACGAUGU	–	-4.59 ± 0.72
CUCUAGCAAUAUUACGAGCC	-4.16 ± 0.59	-3.09 ± 0.54
CGGGAGCAAUAUUACGCCAA	-1.42 ± 0.59	-2.21 ± 1.1
UAUUAGCAAUAUUACGCGGC	–	-2.65 ± 0.76
GCUGAGCAAUAUUACGCUGU	–	-4.6 ± 0.72
CUUGAGCAAUAUUACGCCCU	–	-4.7 ± 0.59
GACGAGCAAUAUUACGCACA	-0.917 ± 0.14	-2.32 ± 0.15

Sequence	self-splicing fitness (ln) (37 °C)	self-splicing fitness (ln) (30 °C)
GGUAAGCAAUAUUACGAAUU	-0.205 ± 0.14	-1.04 ± 0.11
AUCGAGCAAUAUUACGGUGA	-2.25 ± 0.15	-2.39 ± 0.12
UUAUAGCAAUAUUACGAGAG	–	-3.08 ± 0.67
GUCGAGCAAUAUUACGACGC	-0.44 ± 0.71	-0.285 ± 0.68
GGAGAGCAAUAUUACGUUUG	–	-4.45 ± 0.73
AUACAGCAAUAUUACGUAGC	-2.45 ± 0.23	-3.19 ± 0.21
UGGGAGCAAUAUUACGGUGA	–	-4.29 ± 1.1
AGCGAGCAAUAUUACGGAUG	-3.13 ± 0.74	-3.91 ± 0.75
UGAGAGCAAUAUUACGUUUG	-3.69 ± 0.52	-5.06 ± 0.58
CGGGAGCAAUAUUACGCAGU	–	-4.53 ± 0.59
UAAGAGCAAUAUUACGCUCC	-2.65 ± 0.54	-3.13 ± 1
AACUAGCAAUAUUACGACCC	–	-1.13 ± 0.51
CUGGAGCAAUAUUACGAAGA	-0.969 ± 0.77	-3.31 ± 1
UGUAAGCAAUAUUACGCUUU	-2.72 ± 0.27	-3.09 ± 0.26
UUGCAGCAAUAUUACGUAGC	-3.71 ± 0.72	–
UUUGAGCAAUAUUACGUUAC	-2.83 ± 0.54	0.271 ± 0.82
AGCUAGCAAUAUUACGUGGC	–	-4.6 ± 0.51
CCUAAGCAAUAUUACGGUCC	–	-3.64 ± 1
CUCUAGCAAUAUUACGCGCA	-3.04 ± 0.61	-4.4 ± 1
GUCGAGCAAUAUUACGCUAA	–	-4.06 ± 0.72
UCUAAGCAAUAUUACGUGCC	-2.98 ± 1.1	–
UCACAGCAAUAUUACGCCUC	-2.85 ± 0.61	–
AUCGAGCAAUAUUACGCACG	-2.25 ± 0.56	-2.59 ± 0.52

As entered above.
Value of UCACAGCAAUAUUACGCCUC under self-splicing fitness (ln) (37 °C): -2.85 ± 0.61
Value of CCUAAGCAAUAUUACGGUCC under self-splicing fitness (ln) (30 °C): -3.64 ± 1
Value of UGGGAGCAAUAUUACGGUGA under self-splicing fitness (ln) (30 °C): -4.29 ± 1.1
Value of CUCUAGCAAUAUUACGCGCA under self-splicing fitness (ln) (30 °C): -4.4 ± 1

Later entries

Sequence	self-splicing fitness (ln) (37 °C)	self-splicing fitness (ln) (30 °C)
ACUUAGCAAUAUUACGCUCC	0.041 ± 0.19	-1.44 ± 0.22
CUACAGCAAUAUUACGGGCC	–	-5.34 ± 1
CAGAAGCAAUAUUACGAAAA	-2.65 ± 0.21	-4.31 ± 0.46
UCCUAGCAAUAUUACGCUGC	–	-4.05 ± 1
UUUCAGCAAUAUUACGUUGA	–	-3.22 ± 0.6
CUCCAGCAAUAUUACGGUCA	-1.82 ± 0.13	-2.86 ± 0.13
GGGCAGCAAUAUUACGCAUA	0.38 ± 0.13	-1 ± 0.092
CGUAAGCAAUAUUACGGUUC	–	-4.81 ± 0.51
UCAUAGCAAUAUUACGGCCC	–	-2.36 ± 1.2
AAUGAGCAAUAUUACGUAGC	-2.05 ± 0.36	-2.91 ± 0.2
UCGAAGCAAUAUUACGAGGC	–	-4.07 ± 0.73
AUCAAGCAAUAUUACGACCG	-0.381 ± 0.18	-1.33 ± 0.15
AUACAGCAAUAUUACGAAUA	-0.987 ± 0.11	-2.51 ± 0.12
ACUGAGCAAUAUUACGACGA	-0.569 ± 0.12	-1.3 ± 0.13
GGCAAGCAAUAUUACGGUUU	0.232 ± 0.069	-0.376 ± 0.052
UUCAAGCAAUAUUACGCACC	–	-1.32 ± 1.4
AAGAAGCAAUAUUACGAAUA	-0.73 ± 0.12	-1.86 ± 0.17
UUCGAGCAAUAUUACGGAAC	-0.687 ± 0.87	-3.85 ± 0.6
UACUAGCAAUAUUACGAAAC	–	-4.49 ± 1
AGUGAGCAAUAUUACGCAAA	–	-2.62 ± 1.1
GCAAAGCAAUAUUACGAUCG	-0.0765 ± 0.091	-1.52 ± 0.067
GUCAAGCAAUAUUACGGCCA	-2.24 ± 0.55	-4.07 ± 0.72
UAAUAGCAAUAUUACGAAAU	–	-3.27 ± 0.62

Sequence	self-splicing fitness (ln) (37 °C)	self-splicing fitness (ln) (30 °C)
AUUGAGCAAUAUUACGAAUC	-4.88 ± 0.72	–
CUGGAGCAAUAUUACGGAAG	-1.45 ± 0.28	-3.48 ± 0.41
UUCUAGCAAUAUUACGCAUG	-2.01 ± 0.18	-3.42 ± 0.16
UUUAAGCAAUAUUACGCCCC	-0.269 ± 0.65	-2.58 ± 0.8
GAAAAGCAAUAUUACGAGGC	-2.19 ± 0.56	-2.56 ± 0.5
CCGCAGCAAUAUUACGCUGA	-4.47 ± 1	–
CGGUAGCAAUAUUACGGAAA	-1.34 ± 0.61	–
GUGGAGCAAUAUUACGCCGC	-0.624 ± 0.56	–
GUGUAGCAAUAUUACGGAAC	-1.18 ± 0.92	-2.86 ± 0.62
CUAUAGCAAUAUUACGUGGG	-2.16 ± 0.15	-3.25 ± 0.19
UUGCAGCAAUAUUACGCCCU	-1.08 ± 0.58	–
CAAGAGCAAUAUUACGACCU	-1.09 ± 0.67	–
UUGUAGCAAUAUUACGUGUC	-3.53 ± 0.52	–
CUCAAGCAAUAUUACGCUCG	–	-4.05 ± 0.51
UUAGAGCAAUAUUACGGGCC	-2.92 ± 0.74	-3.59 ± 0.75
CGAGAGCAAUAUUACGUCCG	-1.17 ± 0.53	-1.23 ± 0.91
UUUUAGCAAUAUUACGCCCG	-0.315 ± 0.52	–
UCUGAGCAAUAUUACGGGCC	-2.11 ± 0.57	–
UUUUAGCAAUAUUACGUCGC	-0.927 ± 1.2	-1.01 ± 0.56
CGUGAGCAAUAUUACGCAAA	–	-3.58 ± 0.74
GGAUAGCAAUAUUACGCUUA	-0.532 ± 0.15	-1.88 ± 0.18
AGCGAGCAAUAUUACGCGAC	-3.25 ± 0.52	–
CUCUAGCAAUAUUACGCUCU	-3.77 ± 0.31	-3.22 ± 0.19

Sequence	self-splicing fitness (ln) (37 °C)	self-splicing fitness (ln) (30 °C)
UUUGAGCAAUAUUACGUCCA	–	-2.33 ± 0.78
CGCGAGCAAUAUUACGAACC	–	-2.79 ± 0.68
GUUCAGCAAUAUUACGGCUA	-0.232 ± 0.15	-0.564 ± 0.14
AGACAGCAAUAUUACGCCGC	–	-4.4 ± 1
UAAGAGCAAUAUUACGAAAC	–	-3.72 ± 0.53
UGAAAGCAAUAUUACGAGCC	-1.22 ± 0.9	-3.43 ± 1
ACACAGCAAUAUUACGCACC	-0.151 ± 0.11	-0.476 ± 0.09
UCGUAGCAAUAUUACGUUGC	-2.25 ± 0.55	–
CAGUAGCAAUAUUACGUACC	-0.95 ± 0.73	-2.47 ± 0.54
GUGCAGCAAUAUUACGCCGG	-2.05 ± 0.67	–
AGCGAGCAAUAUUACGUACG	-2.74 ± 0.78	-3.5 ± 1
UCGCAGCAAUAUUACGAGUC	–	-2.65 ± 0.5
UCCAAGCAAUAUUACGCGGA	-3.47 ± 0.73	-4.26 ± 1
CGAGAGCAAUAUUACGCCCU	-2.07 ± 1.1	-4.16 ± 1
UAGCAGCAAUAUUACGGAGG	-2.6 ± 0.22	-3.29 ± 0.15
GGCGAGCAAUAUUACGCGCC	–	-3.11 ± 0.55
CGAGAGCAAUAUUACGCUGG	-1.85 ± 0.65	–
UUAGAGCAAUAUUACGGUGG	-0.679 ± 0.13	-1.95 ± 0.12
AGAGAGCAAUAUUACGCUAA	–	-3.41 ± 0.74
GAUGAGCAAUAUUACGAAGG	-2.99 ± 1	–
AUAUAGCAAUAUUACGCUCU	-0.594 ± 0.18	-0.66 ± 0.18
GGUGAGCAAUAUUACGCCCG	–	-3.04 ± 0.63
